Laboratory results from the supplement of paper PMC11732987, “Enantioselective OTUD7B fragment discovery through chemoproteomics screening and high-throughput optimisation” (Communications Chemistry, 2025).
The other results are listed elsewhere or left out. The data scatter; read single values as rough.

Protein sequences, listed by entry. Tags and fused reporters are not part of them. Lines headed by an entry give the natural chain unless they say otherwise; changes in a name come on top. Residues count along the entry.
UniProt P51116, whole entry, looked up: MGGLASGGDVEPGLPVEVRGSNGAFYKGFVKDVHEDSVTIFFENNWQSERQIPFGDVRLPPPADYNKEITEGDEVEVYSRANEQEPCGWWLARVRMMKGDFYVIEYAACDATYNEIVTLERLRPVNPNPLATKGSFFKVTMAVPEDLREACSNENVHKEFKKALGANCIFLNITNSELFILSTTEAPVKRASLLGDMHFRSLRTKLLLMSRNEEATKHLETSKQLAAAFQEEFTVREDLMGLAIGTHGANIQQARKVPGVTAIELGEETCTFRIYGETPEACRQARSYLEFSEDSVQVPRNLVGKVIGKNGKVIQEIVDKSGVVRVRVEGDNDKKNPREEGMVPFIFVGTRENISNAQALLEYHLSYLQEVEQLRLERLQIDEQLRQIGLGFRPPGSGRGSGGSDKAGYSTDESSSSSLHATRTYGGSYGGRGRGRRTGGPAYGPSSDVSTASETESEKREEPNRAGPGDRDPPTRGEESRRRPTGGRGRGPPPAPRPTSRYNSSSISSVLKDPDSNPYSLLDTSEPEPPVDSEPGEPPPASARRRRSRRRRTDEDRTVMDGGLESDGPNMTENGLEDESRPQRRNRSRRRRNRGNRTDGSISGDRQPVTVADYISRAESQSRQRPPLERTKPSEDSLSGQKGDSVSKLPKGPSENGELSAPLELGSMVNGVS
UniProt Q8N0W3, 580-605: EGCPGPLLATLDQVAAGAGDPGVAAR
UniProt Q13642: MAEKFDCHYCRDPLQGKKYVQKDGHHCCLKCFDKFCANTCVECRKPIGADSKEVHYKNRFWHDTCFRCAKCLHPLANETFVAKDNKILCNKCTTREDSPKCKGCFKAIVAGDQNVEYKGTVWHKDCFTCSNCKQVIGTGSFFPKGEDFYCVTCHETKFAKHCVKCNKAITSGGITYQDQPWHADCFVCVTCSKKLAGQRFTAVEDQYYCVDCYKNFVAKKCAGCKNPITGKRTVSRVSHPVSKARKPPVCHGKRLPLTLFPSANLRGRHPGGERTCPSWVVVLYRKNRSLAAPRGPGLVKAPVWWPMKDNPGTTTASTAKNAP
UniProt Q9C0B1, whole entry, looked up: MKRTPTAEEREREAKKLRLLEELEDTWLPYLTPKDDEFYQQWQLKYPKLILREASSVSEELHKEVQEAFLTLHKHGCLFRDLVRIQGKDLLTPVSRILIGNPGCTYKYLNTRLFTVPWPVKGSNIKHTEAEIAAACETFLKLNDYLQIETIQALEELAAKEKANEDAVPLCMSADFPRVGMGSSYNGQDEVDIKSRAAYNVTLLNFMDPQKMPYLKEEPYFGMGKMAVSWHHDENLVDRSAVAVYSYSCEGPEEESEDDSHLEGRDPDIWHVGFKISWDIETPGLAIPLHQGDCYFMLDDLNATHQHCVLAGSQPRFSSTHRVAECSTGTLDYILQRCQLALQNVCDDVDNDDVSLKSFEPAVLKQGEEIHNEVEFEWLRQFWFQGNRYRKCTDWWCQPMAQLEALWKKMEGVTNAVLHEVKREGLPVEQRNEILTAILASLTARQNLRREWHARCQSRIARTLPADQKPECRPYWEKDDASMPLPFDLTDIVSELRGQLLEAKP
UniProt Q9NYY8: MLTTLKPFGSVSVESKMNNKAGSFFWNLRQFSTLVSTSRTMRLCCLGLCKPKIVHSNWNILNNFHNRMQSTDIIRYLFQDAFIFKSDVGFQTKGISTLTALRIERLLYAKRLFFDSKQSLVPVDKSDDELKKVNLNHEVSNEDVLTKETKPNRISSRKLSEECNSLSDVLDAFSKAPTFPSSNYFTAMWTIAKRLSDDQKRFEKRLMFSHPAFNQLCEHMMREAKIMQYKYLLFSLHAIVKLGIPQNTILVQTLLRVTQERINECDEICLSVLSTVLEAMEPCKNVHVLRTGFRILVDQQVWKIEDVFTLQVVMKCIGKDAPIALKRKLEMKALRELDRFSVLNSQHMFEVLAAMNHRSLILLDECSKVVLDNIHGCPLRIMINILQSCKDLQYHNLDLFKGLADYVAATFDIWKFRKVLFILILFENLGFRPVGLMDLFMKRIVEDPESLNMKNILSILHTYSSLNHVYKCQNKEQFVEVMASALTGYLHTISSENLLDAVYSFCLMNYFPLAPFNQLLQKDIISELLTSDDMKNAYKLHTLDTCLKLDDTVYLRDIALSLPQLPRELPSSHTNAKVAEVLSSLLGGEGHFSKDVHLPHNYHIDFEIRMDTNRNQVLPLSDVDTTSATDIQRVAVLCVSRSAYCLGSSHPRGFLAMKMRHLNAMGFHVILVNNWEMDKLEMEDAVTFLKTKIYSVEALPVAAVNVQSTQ
UniProt Q6P3S6: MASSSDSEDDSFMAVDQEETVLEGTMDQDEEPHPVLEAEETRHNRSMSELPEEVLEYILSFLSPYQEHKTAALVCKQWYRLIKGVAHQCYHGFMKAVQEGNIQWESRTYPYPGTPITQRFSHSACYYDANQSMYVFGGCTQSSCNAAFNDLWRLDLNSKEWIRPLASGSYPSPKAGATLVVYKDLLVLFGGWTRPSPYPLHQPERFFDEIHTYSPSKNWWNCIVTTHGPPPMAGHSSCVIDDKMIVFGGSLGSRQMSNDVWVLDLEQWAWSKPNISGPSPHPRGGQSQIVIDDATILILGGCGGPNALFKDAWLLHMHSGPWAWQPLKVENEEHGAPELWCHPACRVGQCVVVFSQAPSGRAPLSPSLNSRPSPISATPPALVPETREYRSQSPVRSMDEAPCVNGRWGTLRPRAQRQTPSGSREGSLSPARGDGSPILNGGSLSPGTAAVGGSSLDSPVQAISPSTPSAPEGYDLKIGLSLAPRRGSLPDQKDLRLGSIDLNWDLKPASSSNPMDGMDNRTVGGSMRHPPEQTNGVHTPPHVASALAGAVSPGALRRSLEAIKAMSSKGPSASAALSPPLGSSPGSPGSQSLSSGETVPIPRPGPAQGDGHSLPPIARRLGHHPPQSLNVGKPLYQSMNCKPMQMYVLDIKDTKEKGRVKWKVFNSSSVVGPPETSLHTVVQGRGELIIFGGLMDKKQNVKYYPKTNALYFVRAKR
UniProt Q96AY3: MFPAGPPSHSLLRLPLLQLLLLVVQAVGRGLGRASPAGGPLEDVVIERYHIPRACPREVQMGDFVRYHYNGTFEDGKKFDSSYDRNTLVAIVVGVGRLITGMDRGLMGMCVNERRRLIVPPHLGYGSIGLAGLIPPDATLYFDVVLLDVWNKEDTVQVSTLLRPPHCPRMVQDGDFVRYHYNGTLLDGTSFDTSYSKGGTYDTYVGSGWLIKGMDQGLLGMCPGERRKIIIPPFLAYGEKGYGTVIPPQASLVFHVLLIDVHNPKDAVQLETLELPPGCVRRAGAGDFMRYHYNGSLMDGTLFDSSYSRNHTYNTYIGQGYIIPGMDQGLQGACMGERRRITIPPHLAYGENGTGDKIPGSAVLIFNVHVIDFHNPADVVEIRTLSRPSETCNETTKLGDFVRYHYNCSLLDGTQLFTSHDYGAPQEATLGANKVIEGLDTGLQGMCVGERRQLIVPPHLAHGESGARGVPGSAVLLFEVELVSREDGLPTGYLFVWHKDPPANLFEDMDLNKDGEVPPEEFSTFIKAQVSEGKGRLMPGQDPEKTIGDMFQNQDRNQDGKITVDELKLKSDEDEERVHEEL
UniProt Q5T1M5: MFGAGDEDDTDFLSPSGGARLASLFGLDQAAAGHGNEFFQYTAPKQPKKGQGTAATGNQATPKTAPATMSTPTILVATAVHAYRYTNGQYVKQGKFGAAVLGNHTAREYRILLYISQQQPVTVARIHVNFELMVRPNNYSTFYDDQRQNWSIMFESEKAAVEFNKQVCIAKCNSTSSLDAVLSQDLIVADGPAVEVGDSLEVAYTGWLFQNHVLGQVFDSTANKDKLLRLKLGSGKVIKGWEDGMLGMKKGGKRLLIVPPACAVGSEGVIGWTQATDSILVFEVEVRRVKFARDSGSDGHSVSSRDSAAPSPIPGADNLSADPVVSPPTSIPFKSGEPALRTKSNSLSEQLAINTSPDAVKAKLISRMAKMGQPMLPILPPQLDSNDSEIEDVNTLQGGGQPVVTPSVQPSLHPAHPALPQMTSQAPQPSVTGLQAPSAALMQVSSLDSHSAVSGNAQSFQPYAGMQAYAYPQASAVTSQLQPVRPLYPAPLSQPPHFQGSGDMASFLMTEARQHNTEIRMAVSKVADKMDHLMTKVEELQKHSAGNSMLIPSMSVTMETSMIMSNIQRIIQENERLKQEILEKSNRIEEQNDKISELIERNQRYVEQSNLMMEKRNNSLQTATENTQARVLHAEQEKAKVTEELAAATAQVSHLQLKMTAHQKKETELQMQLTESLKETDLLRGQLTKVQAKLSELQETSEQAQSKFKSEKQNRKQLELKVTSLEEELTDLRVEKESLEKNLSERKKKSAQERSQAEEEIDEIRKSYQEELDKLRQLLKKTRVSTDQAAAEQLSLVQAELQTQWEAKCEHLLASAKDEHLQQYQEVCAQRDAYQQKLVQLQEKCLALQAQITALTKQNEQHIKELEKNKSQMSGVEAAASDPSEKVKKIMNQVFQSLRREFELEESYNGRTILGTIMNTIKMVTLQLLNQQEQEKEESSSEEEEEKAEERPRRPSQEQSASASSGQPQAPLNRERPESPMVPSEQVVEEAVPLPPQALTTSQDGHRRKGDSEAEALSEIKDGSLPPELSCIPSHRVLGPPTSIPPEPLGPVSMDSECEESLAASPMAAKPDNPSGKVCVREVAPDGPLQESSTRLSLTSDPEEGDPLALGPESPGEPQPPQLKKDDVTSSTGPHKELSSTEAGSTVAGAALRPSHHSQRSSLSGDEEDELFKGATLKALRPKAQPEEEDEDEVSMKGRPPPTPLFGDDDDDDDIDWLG
UniProt O94868: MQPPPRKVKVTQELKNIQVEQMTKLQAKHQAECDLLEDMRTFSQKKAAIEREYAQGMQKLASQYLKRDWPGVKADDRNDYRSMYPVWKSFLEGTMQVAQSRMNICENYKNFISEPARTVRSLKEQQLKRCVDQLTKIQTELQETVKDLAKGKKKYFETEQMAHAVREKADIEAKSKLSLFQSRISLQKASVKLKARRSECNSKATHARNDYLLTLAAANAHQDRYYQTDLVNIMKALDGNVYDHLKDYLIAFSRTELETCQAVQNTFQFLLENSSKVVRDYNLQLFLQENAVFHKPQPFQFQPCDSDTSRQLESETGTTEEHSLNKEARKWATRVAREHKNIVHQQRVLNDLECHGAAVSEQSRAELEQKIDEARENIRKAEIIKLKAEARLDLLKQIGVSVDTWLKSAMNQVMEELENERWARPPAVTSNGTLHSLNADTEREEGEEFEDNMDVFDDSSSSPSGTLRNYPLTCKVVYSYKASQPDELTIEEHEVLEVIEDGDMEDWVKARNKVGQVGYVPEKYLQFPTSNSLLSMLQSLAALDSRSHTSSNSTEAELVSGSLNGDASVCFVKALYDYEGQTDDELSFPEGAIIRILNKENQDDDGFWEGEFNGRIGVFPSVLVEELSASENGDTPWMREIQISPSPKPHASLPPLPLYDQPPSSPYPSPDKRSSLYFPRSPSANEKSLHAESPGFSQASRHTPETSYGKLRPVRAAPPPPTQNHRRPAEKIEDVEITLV

Compound: ClCC(=O)N[C@H]1CCCc2ccccc12
Experiment: log2 mean competition ratio of IA-DTB cysteine labelling (DMSO/compound) (log2 ratio); higher = stronger cysteine engagement by compound
Conditions: 50 µM; treatment time: 4 h; cell line lysate: HEK293T
Description: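 IA-DTB competitive cysteine chemoproteomics in HEK293T RIPA lysate. Lysates were treated with compound 29 or 30 at 50 or 200 µM for 4 h, then IA-DTB (500 µM, 1 h), trypsin-digested, NeutrAvidin-enriched and analysed by diaPASEF. Competition ratio = intensity DMSO / intensity compound (n=4 treated, n=64 DMSO); binding: mean log2 CR ≥ 1 and p ≤ 0.05 plus QC filters. Target is the cysteine site.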

Target	log2 mean competition ratio
FSCN1 C19 (UniProt Q16658)	0.39
FBXO17 C114	0.398
FASN C2202	-0.28
FSCN1 C61 (UniProt Q16658)	0.167
FMR1 C584 (UniProt Q06787)	-0.12
FXR2 C151 (UniProt P51116)	-0.124
FCSK C582 (UniProt Q8N0W3)	-0.687
FHL1 C71 (UniProt Q13642)	-0.184
FTO C104 (UniProt Q9C0B1)	-0.433
FHOD1 C373 (UniProt Q9Y613)	-0.058
FBN2 C89 (UniProt P35556)	0.156
FASN C1881	0.389
FASTKD2 C546 (UniProt Q9NYY8)	0.178
FBXO42 C403 (UniProt Q6P3S6)	0.239
GART C298	-0.205
FOXF2 C404	0.556
FKBP10 C447 (UniProt Q96AY3)	0.246
FLNA C1018	-0.319
FKBP15 C1031 (UniProt Q5T1M5)	-0.0302
FCHSD2 C105 (UniProt O94868)	-0.228

Same assay, conditions: 200 µM; treatment time: 4 h; cell line lysate: HEK293T

Target	log2 mean competition ratio
FSCN1 C19 (UniProt Q16658)	-0.0959
FBXO17 C114	-0.309
FASN C2202	-0.306
FSCN1 C61 (UniProt Q16658)	0.33
FMR1 C584 (UniProt Q06787)	0.344
FXR2 C151 (UniProt P51116)	-0.0647
FCSK C582 (UniProt Q8N0W3)	0.0726
FHL1 C71 (UniProt Q13642)	-0.353
FTO C104 (UniProt Q9C0B1)	-0.0357
FHOD1 C373 (UniProt Q9Y613)	-0.00971
FBN2 C89 (UniProt P35556)	0.231
FASN C1881	-0.629
FASTKD2 C546 (UniProt Q9NYY8)	0.011
FBXO42 C403 (UniProt Q6P3S6)	0.224
GART C298	-0.00443
GAREM1 C796	0.112
FOXF2 C404	0.6
FKBP10 C447 (UniProt Q96AY3)	0.257
FLNA C1018	0.0554
FKBP15 C1031 (UniProt Q5T1M5)	-0.132
FCHSD2 C105 (UniProt O94868)	0.279
